Results on 41 compounds are retold here after PubChem BioAssay AID493014 (National Center for Advancing Translational Sciences (NCATS), 2011).

By AC50 is commonly meant the concentration at which the activity in the assay is half-maximal.

This is one part of the list. Further columns of the screen follow, without active or inactive calls. The list favours compounds with an active or inconclusive main result. Potencies come from curve fits of mixed quality, noted in brackets.

This test is described as follows: qHTS Assay to Find Inhibitors of Chronic Active B-Cell Receptor Signaling. To be noted: ABC-DLBCL IkBa-CBG/CBR reporter, luminescence ratio (green luciferase fused to IkBa over red control in TMD8 lymphoma cells), 4 h. The method in brief: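 Compounds up to 46 uM were incubated four hours with TMD8 cells whose green CBG68 luciferase is fused to IkappaBalpha; red CBR luminescence normalised the signal, and concentration-effect curves were fitted to fusion, red and ratio data.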

Where [1] appears, read: measured here: CBR red luminescence, cell number.
Where [2] appears, read: measured here: IkBa-CBG green luminescence.

For the compound `COc1cccc(NC(=O)CN(c2cccc(C(F)(F)F)c2)S(C)(=O)=O)c1`, the AC50 under setting [1] was 7.94 µM [falling, partial curve].
Turning to `C[C@@H]1CC=C[C@H]2[C@H]1C(=O)N(Cc1ccccc1)[C@H]2c1ccc(-c2ccoc2)cc1F`, under setting [1], the AC50 is 35.5 µM [falling, single point].
For `O=C(/C=C/c1ccco1)NC(=S)Nc1cccc(C(=O)O)c1`, the AC50 under setting [1] was 8.91 µM [falling, partial curve].
Take `NC(=O)c1sc2nc(-c3cccnc3)ccc2c1N`: the AC50 under setting [1] is 0.708 µM [rising, partial curve, poor fit].
Turning to `CN(C)c1ccc(-c2nn3c(-c4cccnc4)nnc3s2)cc1`, the concentration at half-maximal activity (AC50) under setting [1] is 14.6 µM [rising, partial curve, poor fit].
Still for that read-out and setting: to `O=C(O)c1ccc(CNc2ccccc2C(=O)O)cc1` belongs 16.4 µM [falling, single point].
As to `N#C/C(=C\c1ccncc1)C(=O)Nc1ccc(C(=O)O)cc1`, under setting [1], the concentration at half-maximal activity (AC50) is 7.08 µM [falling, partial curve].
As for `Cc1nc(N2N=C3/C(=C/c4ccc(F)cc4)CCCC3C2c2ccc(F)cc2)sc1C(=O)N(C)C` (configuration not stated), the concentration at half-maximal activity (AC50) under setting [1] was 29.1 µM [falling, single point].
Consider `O=C(CCc1ccc(S(=O)(=O)N2CCOCC2)cc1)OCc1nc2ccccc2s1`, for which the AC50 under setting [1] was 3.98 µM [rising, partial curve, poor fit].
As for `CCc1c(C)nc(SCCOc2ccc(OC)cc2)[nH]c1=O`, the half-maximal activity concentration (AC50) under setting [2] was 31.6 µM [falling, partial curve, poor fit].
Take `COc1ccc(NC(=O)CCN2CCCCC2)cc1`: the AC50 under setting [1] was 4.61 µM [falling, full curve, poor fit].
For `Cn1c(=O)c(C(=O)Nc2ccccc2S(N)(=O)=O)c(O)c2ccccc21`, the AC50 under setting [1] was 0.794 µM [falling, partial curve].
Turning to `N#CC1=C(N)OC2=C(CC/C2=C\c2ccccc2)C1c1ccccc1` (configuration not stated), the AC50 under setting [1] was 11.2 µM [falling, partial curve].
As for `Cc1occc1C(=O)NNC(=S)Nc1ccccc1C(F)(F)F`, the AC50 under setting [1] is 25.9 µM [falling, partial curve].
On the same count and under the same terms, to `O=C(Nc1cccc(F)c1)/C(=C/c1ccco1)NC(=O)c1ccco1` belongs 35.5 µM [falling, single point]; to `COc1ccc(C2C(C(C)=O)=C(O)C(=O)N2c2nccs2)c(OC)c1` (configuration not stated), 15.8 µM [rising, partial curve, poor fit]; to `COC(=O)C1=CN(C2CC2)C=C(C(=O)OC)C1c1ccccc1OC`, 7.08 µM [falling, full curve, poor fit].
Consider `Clc1ccccc1-c1nnc2sc(-c3ccncc3)nn12`, for which, under setting [1], the AC50 is 5.8 µM [falling, partial curve].
Take `Cc1ccc2cc(CN(CC3CCCO3)C(=S)Nc3ccccc3)c(=O)[nH]c2c1` (configuration not stated): the AC50 was 14.1 µM [falling, partial curve, poor fit] under setting [1] and 17.8 µM [rising, partial curve, poor fit] under setting [2].
For the compound `COc1ccc2oc(=O)c(C(=O)Nc3ccccc3C)cc2c1`, the AC50 under setting [1] was 8.91 µM [falling, partial curve].
Take `Cc1ccc(S(=O)(=O)Nc2nc3ccccc3nc2NCc2ccco2)cc1`: the AC50 under setting [1] was 3.66 µM [falling, partial curve].
With `Cc1[nH]c2ccccc2c1SCc1nnc(SCc2ccc(Cl)cc2)n1C`, the AC50 under setting [1] was 35.5 µM [falling, single point].
For the compound `O=C(OCC(=O)N1CCN(C(=O)c2ccco2)CC1)c1cc(-c2cccc(Br)c2)nc2ccccc12`, under setting [1], the AC50 was 32.6 µM [falling, single point].
For the compound `CCNC(=O)N1c2ccc(OCC)cc2C(C)=CC1(C)C`, under setting [1], the concentration at half-maximal activity (AC50) is 17.8 µM [falling, single point].
In the case of `Cc1ccc(C2NC(=O)NC3=C2CCc2ccccc23)cc1` (configuration not stated), under setting [1], the AC50 is 0.891 µM [rising, full curve].
In the case of `O=C(Nc1cc(Cl)cc(Cl)c1)C1CC(=O)N(C2CCCC2)C1` (configuration not stated), under setting [1], the AC50 is 25.9 µM [falling, single point].
On to `COc1ccccc1C(=O)Nc1ccc2c(c1)nc(CN1CCCCC1)n2C`, for which the AC50 under setting [1] was 35.5 µM [falling, single point].
Take `C=CC[C@@H](CC(=O)N[C@H](CO)Cc1ccccc1)C(=O)N[C@@H](COC(=O)[C@@H](CC=C)Cc1ccc(F)cc1)Cc1c[nH]c2ccccc12`: the AC50 under setting [1] is 29.1 µM [falling, single point].
Still for that read-out and setting: to `Cc1cccc(CC(=O)N2CCC(N3CCC(C(=O)N4CCOCC4)CC3)CC2)c1` belongs 7.94 µM [rising, partial curve, poor fit]; to `O=S(=O)(CCOc1ccccc1)c1nc2ccccc2[nH]1`, 10.3 µM [falling, partial curve]; to `O=C(NCCCNc1ccc(C(F)(F)F)cc1[N+](=O)[O-])c1ccc(F)cc1`, 32.6 µM [rising, single point].
Take `O=C(COc1ccc(Br)cc1Cl)N1CCN(c2ncccn2)CC1`: the AC50 under setting [1] is 6.51 µM [rising, partial curve].
As to `O=C(Cc1csc(NC(=O)Nc2cccc(Cl)c2)n1)NCc1ccccn1`, the AC50 under setting [1] was 6.51 µM [rising, single point].
Take `OC(CNC1Cc2ccccc2C1)COc1ccc(Cl)cc1` (configuration not stated): the AC50 under setting [1] is 10 µM [rising, partial curve].
As to `O=C(O)/C=C/C(=O)NNC(=O)c1ccc(Cl)cc1Cl`, the AC50 under setting [1] is 3.98 µM [falling, full curve, poor fit].
Regarding `COc1ccc(N2CC(NC(=O)N3CCN(C(=O)c4ccco4)CC3)CC2=O)cc1OC` (configuration not stated), the AC50 under setting [1] is 18.4 µM [falling, partial curve, poor fit].
On to `CCCC/C(O)=C/c1nc2ccccc2[nH]c1=O`, for which, under setting [2], the AC50 is 18.4 µM [falling, single point].
In the case of `Cc1cc(C)nc(NC(=O)c2ccc(OC(C)C)cc2)n1`, the AC50 under setting [1] was 23.1 µM [falling, partial curve, poor fit].
On the same count and under the same terms, to `COc1cccc(N2CC34C=CC(O3)C(C(=O)O)C4C2=O)c1` (configuration not stated) belongs 5.8 µM [rising, full curve]; to `Oc1cccc2c(-c3nn[nH]n3)ccnc12`, 5.17 µM [rising, partial curve, poor fit]; to `COc1ccc2ccccc2c1-c1csc(N)n1`, 3.55 µM [rising, single point].
